# Measurements published in PMC5952157.
# Amino acid sequences for entries named in this document (tags omitted).
# UniProt P0C0U1: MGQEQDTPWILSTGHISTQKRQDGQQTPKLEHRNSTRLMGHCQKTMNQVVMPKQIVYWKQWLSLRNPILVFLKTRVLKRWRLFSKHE
# UniProt O00165: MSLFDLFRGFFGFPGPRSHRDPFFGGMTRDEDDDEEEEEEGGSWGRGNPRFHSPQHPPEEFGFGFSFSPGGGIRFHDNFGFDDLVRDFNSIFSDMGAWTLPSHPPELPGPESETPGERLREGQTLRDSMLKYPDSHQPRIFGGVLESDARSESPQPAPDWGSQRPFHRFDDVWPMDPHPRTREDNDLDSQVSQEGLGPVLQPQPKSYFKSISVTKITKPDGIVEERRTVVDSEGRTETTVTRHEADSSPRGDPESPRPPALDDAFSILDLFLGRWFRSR
# These are yes or no findings as the source states them, for the method shown. In cells and extracts the contact can be indirect. Some entries that bind do so weakly or less than the wild type.
# Biological target: Flag-tagged PB1-F2 of H1N1 A/Puerto Rico/8/1934 (influenza A virus A/Puerto Rico/8/1934 (H1N1)) (UniProt P0C0U1)
# Test: co-IP; only the target purified
substance,measurement,value
V5-HAX-1 (HCLS1-associated protein X-1) (from UniProt O00165 1-279),binding,binds
